Measured values published in the supplement of paper PMC8497498.
The list shows a part of the results. The data scatter; read single values as rough.

Legend:
Settings in all cases: 10 µM
[1] = system: Plasmodium vivax liver stage (primary human hepatocyte culture); assay: hypnozoite quantity inhibition (% inhibition); higher = more active against hypnozoites
[2] = system: Plasmodium vivax liver stage (primary human hepatocyte culture); assay: schizont net growth area inhibition (% inhibition); higher = more active against liver schizonts
[3] = system: primary human hepatocytes; assay: hepatic nuclei reduction relative to DMSO (100 - % of negative control); higher = more toxic to hepatocytes
[4] = assay mode: Prophylactic (treated before or shortly after infection), fixed day 6 post-infection
[5] = assay mode: Radical Cure (treated from day 5 post-infection for 3 days), fixed day 8 post-infection

| Compound | hypnozoite quantity inhibition [1, 4] | hypnozoite quantity inhibition [1, 5] | schizont net growth area inhibition [2, 4] | schizont net growth area inhibition [2, 5] | hepatic nuclei reduction [3, 4] | hepatic nuclei reduction [3, 5] |
| --- | --- | --- | --- | --- | --- | --- |
| Cc1cc(C(=O)Nc2cnn(Cc3ccc(Cl)cc3Cl)c2)no1 | -43 | -72 | 37.8 | -114 | -1% | 0% |
| CCN(CC)CCCNc1nc(-c2ccc(Cl)cc2)nc2ccccc12 | 5.7 | 15.6 | 80.5 | 68.9 | 7% | -3% |
| COc1ccc(Nc2ccccc2NC(=O)c2ccc(O)nc2)cc1 | 3 | -4 | 43 | -24.6 | 4% | -4% |
| CCN(CC)CCCC(C)Nc1cc(OC)cc2cccnc12 (centres undefined) | 58 | 26 | 36.8 | 42.2 | 0% | -7% |
| O=C(NC1=NCCS1)c1sc2cc(F)ccc2c1Cl | -14 | 11 | -1.6 | -74.2 | -2% | 0% |
| Cc1cc2nc(NC(=O)C(C)(C)C)nc(Cl)c2n1Cc1ccc(Cl)cc1 | 27 | -57 | 5.9 | -123 | 0% | 2% |
| Cc1ccc(C)c(-c2csc(Nc3ccc(C)c(C)c3)n2)c1 | -12.6 | 26.5 | -3.6 | -88.5 | 6% | 0% |
| Cc1nn2c(=O)c3c([nH]c2c1-c1ccc(Cl)cc1)CCCC3 | -19 | -12 | 1.7 | -59.9 | 0% | -2% |
| C=CCc1c(C)nc2ccccc2c1O | 7 | 4.7 | 0.2 | 41.3 | 2% | -5% |
| O=C(c1ccc(NCCO)cc1)C1C[C@H]1c1ccc(Cl)cc1 (some centres undefined) | -15 | -22 | -11.4 | 27.9 | -3% | -4% |
| O=C(Nc1ccc(C23CC4CC(CC(c5ccccc5)(C4)C2)C3)cc1)c1cccs1 | 34.8 | 37.4 | 43 | -11.6 | -1% | 7% |
| COc1cccc(OCC(=O)c2ccc(Br)cc2)c1 | 3 | -23 | 18.7 | -50.9 | 0% | 11% |
| Cc1ccccc1C(=O)N1N=C(Nc2ccccc2)SC1(C)C | 19 | -17 | -56.2 | 38.4 | -6% | -2% |
| CCCCCCn1c(=N)n(CC(O)COc2cccc(C)c2)c2ccccc21 (centres undefined) | 29.1 | 23.7 | 36.5 | 20 | 4% | -4% |
| O=c1nc(C=Cc2ccc(Br)cc2)oc2ccccc12 | -53.3 | 45 | 22.2 | -37.2 | -2% | 2% |
| O=C(Nc1nnc(-c2ccc(Cl)cc2)o1)c1cccc(C(F)(F)F)c1 | 1 | 22 | 48.9 | 12.2 | 1% | 3% |
| COC(=O)c1ccc(Cl)c2c1C1C=CCC1C(c1cccc3ccccc13)N2 (centres undefined) | -14.7 | 17.6 | -10.7 | -24.7 | -4% | -4% |
| O=C(Nc1ccccc1-c1nc2c(C(=O)O)cccc2o1)c1ccccc1 | 4 | -31 | 26.3 | -43.9 | -7% | -4% |
| COc1cc(C(=O)Nc2ccc(-c3nc4ccccc4[nH]3)cc2)cc(OC)c1OC | -16.9 | 22.1 | 71.9 | 48.3 | 4% | -18% |
| C[C@H](C(N)=O)N1CCCC[C@@H]1c1ccc(OCc2cccc(F)c2)cc1 | -24 | 0 | -33.6 | -18.9 | -10% | -4% |
| CN(C)c1ccc2nc3ccc(=[N+](C)C)cc-3sc2c1 | -24 | 20 | -37.6 | -0.4 | -12% | 0% |
| O=C(NCC1Cc2cccc(-c3ccncc3)c2O1)c1csc2c1CCCC2 (centres undefined) | -10.7 | -0.8 | 15.1 | -14.8 | -3% | -7% |

Some values from above:
O=C(c1ccc(NCCO)cc1)C1C[C@H]1c1ccc(Cl)cc1 (some centres undefined) | hypnozoite quantity inhibition [1, 5]: -22
COc1ccc(Nc2ccccc2NC(=O)c2ccc(O)nc2)cc1 | hepatic nuclei reduction [3, 5]: -4%

(list continues)

| Compound | hypnozoite quantity inhibition [1, 4] | hypnozoite quantity inhibition [1, 5] | schizont net growth area inhibition [2, 4] | schizont net growth area inhibition [2, 5] | hepatic nuclei reduction [3, 4] | hepatic nuclei reduction [3, 5] |
| --- | --- | --- | --- | --- | --- | --- |
| CCCc1c(CC)c(=N)c2ccccc2n1C | 41.1 | 26.7 | 24.5 | 32.9 | 13% | 4% |
| CC(C)NCC(=O)Nc1cccc(C(=O)Nc2cccc(C(F)(F)F)c2)c1 | -163 | 40 | -69.1 | 40.3 | -2% | 3% |
| CCOC(=O)C1(Cc2ccccc2)CCN(Cc2cccc(OC)c2O)CC1 | 16.4 | 18.3 | -26.9 | -71 | -4% | -7% |
| Cc1ccc(-c2cc3c(nn2)-c2ccccc2C3=O)cc1 | 23.4 | -44.4 | 4.6 | -71.5 | -2% | -5% |
| Cc1ccc(C2CC(C(F)(F)F)n3nc(C(=O)N4CCN(C(c5ccccc5)c5ccccc5)CC4)cc3N2)cc1 (centres undefined) | 3.9 | 40.5 | -78.5 | -11.3 | -13% | -10% |
| CCNC(=O)C(C)Nc1nc(-c2cccnc2)nc2sc(C)c(C)c12 (centres undefined) | 21 | 3 | 13 | -64.6 | -5% | -7% |
| Cc1cc(C)n2nc(C(=O)Nc3cc(C(F)(F)F)ccc3N3CCOCC3)nc2n1 | -38 | -20 | 41.8 | -2.6 | -5% | 8% |
| OCCNc1nc(Nc2ccc(Cl)c(Cl)c2)nc2ccccc12 | -12.6 | 48.2 | 7.2 | 38.7 | -2% | -3% |
| Cc1ccc2nc(C)cc(Nc3cccc(C(F)(F)F)c3)c2c1 | -3.5 | 54.2 | 51.9 | 20.3 | -17% | -2% |
| CCOc1ccc(CCNC(=O)c2cccs2)cc1OCC | -7.2 | 67.9 | 40.5 | 13.2 | -5% | 0% |
| Cc1cc(C)c2nc(N3CCC(C(=O)NCCCN4CCC(N5CCCCC5)CC4)CC3)sc2c1 | -12 | 26.5 | 9.5 | 44.9 | 0% | 0% |
| CCN(CC)S(=O)(=O)c1ccc(-c2csc(Nc3ccc(C)c(C)c3)n2)cc1 | 25.9 | -36.2 | 29.3 | -100 | -5% | -6% |
| COCCn1c(C)nc2ccccc2c1=O | 3.9 | 47.3 | 2.4 | 37.3 | -1% | -4% |
| O=C(NC1CCN(Cc2ccccc2)CC1)c1cc(C(=O)NC2CCN(Cc3ccccc3)CC2)cc(C(=O)NC2CCN(Cc3ccccc3)CC2)c1 | 55.2 | 49.6 | 61 | 17.9 | 37% | -3% |
| NS(=O)(=O)c1cncc(-c2ccc3nccc(-c4cn[nH]c4)c3n2)c1 | -7 | -29 | -101 | 5.9 | -4% | 1% |
| COc1ccc2nc(C)cc(OCC(=O)NCc3ccccc3)c2c1 | -3 | 3 | 37.8 | -49 | -11% | -9% |
| Nc1nc(N)c2c3c(sc2n1)CN(Cc1ccccc1)CC3 | 4 | -51 | 5.2 | -101 | -5% | -11% |
| CC1CC1C(=O)NC1CCN(CC2(c3ccccc3)CCCCC2)CC1 (centres undefined) | 5 | -36 | 35.3 | -64.4 | -6% | -7% |
| CN(C(=O)c1cc2c(-c3cncnc3)cccc2[nH]1)c1ccccc1 | 23 | 2 | 101 | 105 | -7% | 1% |
| O=C(c1ccco1)N(CCCn1ccnc1)c1nc2c(Cl)cccc2s1 | -37 | -4 | 28 | -107 | -10% | -10% |
| OC(CNC1CCCCC1)Cn1c2ccc(I)cc2c2cc(I)ccc21 (centres undefined) | 21.5 | 18.3 | -17.4 | -20.7 | 10% | -9% |
| Cn1c(=O)c2cc(C(=O)NCCCN3CCCCCC3)sc2c2ccccc21 | -4.4 | 21 | 13.1 | -8.7 | -2% | -1% |

Record cards, from the list above.
`NS(=O)(=O)c1cncc(-c2ccc3nccc(-c4cn[nH]c4)c3n2)c1` reads hypnozoite quantity inhibition [1, 4]: -7; hypnozoite quantity inhibition [1, 5]: -29; schizont net growth area inhibition [2, 4]: -101; schizont net growth area inhibition [2, 5]: 5.9; hepatic nuclei reduction [3, 4]: -4%; hepatic nuclei reduction [3, 5]: 1%
`Cc1ccc(C2CC(C(F)(F)F)n3nc(C(=O)N4CCN(C(c5ccccc5)c5ccccc5)CC4)cc3N2)cc1` (centres undefined) reads hypnozoite quantity inhibition [1, 4]: 3.9; hypnozoite quantity inhibition [1, 5]: 40.5; schizont net growth area inhibition [2, 4]: -78.5; schizont net growth area inhibition [2, 5]: -11.3; hepatic nuclei reduction [3, 4]: -13%; hepatic nuclei reduction [3, 5]: -10%

Continued.

| Compound | hypnozoite quantity inhibition [1, 4] | hypnozoite quantity inhibition [1, 5] | schizont net growth area inhibition [2, 4] | schizont net growth area inhibition [2, 5] | hepatic nuclei reduction [3, 4] | hepatic nuclei reduction [3, 5] |
| --- | --- | --- | --- | --- | --- | --- |
| O=C(NCc1ccco1)C1CCN(S(=O)(=O)c2ccc(Cl)cc2)CC1 | -11.4 | 40.1 | 1.4 | -1.8 | 10% | 0% |
| CCOC(=O)NC(=O)c1ccsc1NC(=O)c1nc2ccccc2s1 | -59 | 19 | 4.8 | -103 | -4% | 6% |
| c1ccc(Cn2c(N=Nc3c(Nc4ccccc4)ccc4ccccc34)nc3ccccc32)cc1 | -38.5 | 1.5 | 89.6 | 40.8 | 4% | 2% |
| CNc1cc(C)nc(C2CN(C(=O)c3n[nH]c4ccccc34)CCO2)c1 (centres undefined) | 25 | -46 | 8 | -64.2 | -2% | -3% |
| O=C(c1cc2ccccc2o1)N1CCN(Cc2ccc3c(c2)OCO3)CC1 | -9 | -20 | -40.3 | -105 | -4% | -1% |
| CCOc1cc2c(cc1OCC)C(c1cc(Cl)ccc1O)NCC2 (centres undefined) | 10.6 | 33.6 | 33 | -26.4 | -9% | 12% |
| COc1ccc(CNC(=O)c2cc3c(=O)n4ccccc4nc3n(CCc3ccccc3)c2=N)cc1 | -17.7 | 26.7 | -16.8 | -2.5 | -17% | 4% |
| O=C1N(Cc2cc3ccccc3s2)CC2CN(Cc3ccccc3)CCN12 (centres undefined) | 56 | -80 | 102 | 67.7 | 2% | -6% |
| COc1ccc(NC(=O)C2c3ccccc3C(=O)N(CC(C)C)C2c2cccs2)cc1 (centres undefined) | 20.9 | 31.9 | 49 | -19.4 | 0% | -6% |
| CCOc1cc2c(cc1OCC)C(c1cc(OC)c(O)cc1Cl)NCC2 (centres undefined) | -40.7 | -0.8 | 22.6 | -62.7 | -12% | -8% |
| Cc1ccc(C(=O)Nc2ccc(S(=O)(=O)O)c3cc(S(=O)(=O)O)cc(S(=O)(=O)O)c23)cc1NC(=O)c1cccc(NC(=O)Nc2cccc(C(=O)Nc3cc(C(=O)Nc4ccc(S(=O)(=O)O)c5cc(S(=O)(=O)O)cc(S(=O)(=O)O)c45)ccc3C)c2)c1 | 25 | -18 | 36.3 | -114 | 1% | -2% |
| O=C1C(O)=C([C@H]2CC[C@H](c3ccc(Cl)cc3)CC2)C(=O)c2ccccc21 | -24 | 7 | 58.3 | 51.4 | -6% | -3% |
| Cc1cccc(N2C(=O)C3C(C2=O)C2(c4ccccc4)C(=O)C3(c3ccccc3)C(c3ccc4c(c3)OCO4)=C2c2ccc3c(c2)OCO3)c1 (centres undefined) | -31.8 | 42.7 | 32.2 | -24.8 | -7% | -3% |
| COc1ccc(C)c2sc(N(Cc3cccnc3)C(=O)c3ccc(C#N)cc3)nc12 | -20.2 | 23.7 | 22.3 | -14.2 | 3% | -7% |
| Cc1cc(C(=O)Nc2ccc(-c3ccccc3)cc2)no1 | -11 | -7 | -55.6 | -75.9 | -11% | -5% |
| CNC(=O)c1nn(C)c2c1C(C)(C)Cc1cnc(Nc3ccc(N4CCN(C)CC4)cc3)nc1-2 | 31 | -12 | 102 | 45.6 | 26% | 18% |
| Oc1ccc(Cl)cc1CNc1nc2ccccc2[nH]1 | 14.5 | 26.5 | 24.5 | -70.2 | 4% | -7% |
| CCCCc1c(C)nc2c(OC)cccc2c1O | -18.3 | 10.1 | 17.8 | -38.4 | -1% | -7% |
| c1ccc(C2=Nc3ccccc3N=C(c3ccccc3)c3ccccc32)cc1 | 8.2 | 26.5 | 45.2 | 28.6 | 1% | -5% |
| CCCCC(O)(c1ccc(Cl)cc1)C(CN1CCOCC1)c1ccc(Cl)cc1 (centres undefined) | 29.7 | -3.5 | 49.2 | -105 | 1% | -5% |
